# Where “and” joins values, the source holds several entries; their conditions need not be identical. Equal values may be shown once. Where a name gives a salt, the structure may show the parent alone. ± gives the standard deviation of the averaged measurements. Some of the results follow. Many values rest on one well or one pass, so single values are uncertain.
# Tested on: RAW 264.7
# Assay: cell viability (MTT) relative to vehicle control; higher = more viable cells
# Conditions: stimulus: HMGB1 5 ug/ml, 18 h
# [1] = compound concentration: 1 ug/ml
SMILES,cell viability (compound concentration: 3 uM),cell viability [1]
CN(C)CCOc1ccc(/C(=C(/CCCl)c2ccccc2)c2ccccc2)cc1 [Toremifene],120 ± 11%,–
CN(C)CCOc1ccc(/C(=C(/CCCl)c2ccccc2)c2ccccc2)cc1,112% and 103%,–
CCN1CCN(C(=O)N[C@@H](C(=O)N[C@@H]2C(=O)N3C(C(=O)O)=C(CSc4nnnn4C)CS[C@H]23)c2ccc(O)cc2)C(=O)C1=O [Cefoperazone acid],91.8%,–
CCN1CCN(C(=O)N[C@@H](C(=O)N[C@@H]2C(=O)N3C(C(=O)O)=C(CSc4nnnn4C)CS[C@H]23)c2ccc(O)cc2)C(=O)C1=O [Cefoperazone dihydrate],104%,–
CCN1CCN(C(=O)N[C@@H](C(=O)N[C@@H]2C(=O)N3C(C(=O)O)=C(CSc4nnnn4C)CS[C@H]23)c2ccc(O)cc2)C(=O)C1=O,102%,–
O=C(NCCO[N+](=O)[O-])c1cccnc1,97%,–
O=C(NCCO[N+](=O)[O-])c1cccnc1 [Nicorandil],109 ± 18%,–
Cc1ccc(Cl)c(Nc2ccccc2C(=O)O)c1Cl [Meclofenamic acid sodium salt monohydrate],88.1%,–
Cc1ccc(Cl)c(Nc2ccccc2C(=O)O)c1Cl [Meclofenamic acid sodium],116%,–
Cc1ccc(Cl)c(Nc2ccccc2C(=O)O)c1Cl,115%,–
C=C1/C(=C\C=C2/CCC[C@]3(C)[C@@H]([C@H](C)/C=C/[C@@H](O)C4CC4)CC[C@@H]23)C[C@@H](O)C[C@@H]1O [Calcipotriene],115 ± 3.1%,–
C=C1/C(=C\C=C2/CCC[C@]3(C)[C@@H]([C@H](C)/C=C/[C@@H](O)C4CC4)CC[C@@H]23)C[C@@H](O)C[C@@H]1O,103%,–
COC(=O)Nc1nc2ccc(SC(C)C)cc2[nH]1 [Methiazole],77.4%,–
COC(=O)C1=C(C)NC(C)=C(C(=O)OCCCN2CCC(c3ccccc3)(c3ccccc3)CC2)[C@H]1c1cccc([N+](=O)[O-])c1 [Niguldipine],104%,–
CCCCNc1ccc(C(=O)OCCOCCOCCOCCOCCOCCOCCOCCOCCOC)cc1 [Benzonatate],107%,–
COCCOC(=O)C1=C(C)NC(C)=C(C(=O)OC/C=C/c2ccccc2)C1c1cccc([N+](=O)[O-])c1 (stereo unspecified) [Cilnidipine],107 ± 7.6%,–
Cc1cc(/C=C/c2ccc3cc(N(C)C)ccc3[n+]2C)c(C)n1-c1ccccc1,37.4%,–
Cc1cc(/C=C/c2ccc3cc(N(C)C)ccc3[n+]2C)c(C)n1-c1ccccc1 [Pyrvinium pamoate],2.25%,–
CCn1nc(C(=O)O)c(=O)c2cc3c(cc21)OCO3,105%,–
CCn1nc(C(=O)O)c(=O)c2cc3c(cc21)OCO3 [Cinoxacin],113 ± 10%,105%
O=c1c(-c2ccc(O)cc2)coc2c([C@@H]3O[C@H](CO)[C@@H](O)[C@H](O)[C@H]3O)c(O)ccc12 [Puerarin],–,108%
C[C@H]1CC2C3CCC4=CC(=O)C=C[C@]4(C)[C@@]3(F)[C@@H](O)C[C@]2(C)[C@@]1(O)C(=O)COP(=O)(O)O (stereo partly specified),122%,–
CCCc1nc(C)c2c(=O)nc(-c3cc(S(=O)(=O)N4CCN(CC)CC4)ccc3OCC)[nH]n12 [Vardenafil],102 ± 5.7%,–

# Individual results from the results shown.
# Value for Cc1ccc(Cl)c(Nc2ccccc2C(=O)O)c1Cl [Meclofenamic acid sodium salt monohydrate] under cell viability (compound concentration: 3 uM): 88.1%
# Value for C[C@H]1CC2C3CCC4=CC(=O)C=C[C@]4(C)[C@@]3(F)[C@@H](O)C[C@]2(C)[C@@]1(O)C(=O)COP(=O)(O)O (stereo partly specified) under cell viability (compound concentration: 3 uM): 122%

# (list continues)

SMILES,cell viability (compound concentration: 3 uM),cell viability [1]
CCCc1nc(C)c2c(=O)nc(-c3cc(S(=O)(=O)N4CCN(CC)CC4)ccc3OCC)[nH]n12,98.8%,–
COC(=O)CC[C@@H](C)[C@H]1CC[C@H]2[C@@H]3CC[C@@H]4C[C@H](O)CC[C@]4(C)[C@H]3C[C@H](O)[C@]12C [Deoxycholic acid methyl ester],–,96.5%
O=C(O)/C=C/c1ccc(Cn2ccnc2)cc1 [Ozagrel],101%,–
O=C(O)/C=C/c1ccc(Cn2ccnc2)cc1,97.4% and 101%,–
O=C(O)/C=C/c1ccc(Cn2ccnc2)cc1 [Ozagrel hydrochloride],99.3%,–
CN1CCN(c2nc3cc(C(F)(F)F)ccc3n3cccc23)CC1,107% and 100%,–
CNC(C)C1CCC(N)C(OC2C(N)CC(N)C(OC3OCC(C)(O)C(NC)C3O)C2O)O1 (stereo unspecified) [Gentamycin],105%,–
O=c1cc(-c2cccc(O)c2)oc2cc(O)ccc12,–,100%
CCn1ccnc1CC1COc2ccccc2O1 (stereo unspecified) [Imiloxan hydrochloride],95.1%,–
O=c1cc(-c2ccccc2O)oc2c1ccc1ccccc12,–,91.5%
Cc1cc(C)c(/C=C2\C(=O)Nc3ccccc32)[nH]1,114%,–
CC[C@H]1OC(=O)[C@H](C)[C@@H](O[C@H]2C[C@@](C)(OC)[C@@H](O)[C@H](C)O2)[C@H](C)[C@@H](O[C@@H]2O[C@H](C)C[C@H](N(C)C)[C@H]2O)[C@](C)(O)C[C@@H](C)[C@@H]2N[C@@H](COCCOC)O[C@H]([C@H]2C)[C@]1(C)O,107%,–
CC[C@H]1OC(=O)[C@H](C)[C@@H](O[C@H]2C[C@@](C)(OC)[C@@H](O)[C@H](C)O2)[C@H](C)[C@@H](O[C@@H]2O[C@H](C)C[C@H](N(C)C)[C@H]2O)[C@](C)(O)C[C@@H](C)[C@@H]2N[C@@H](COCCOC)O[C@H]([C@H]2C)[C@]1(C)O [Dirithromycin],82.5%,–
O=C1CC2(CCCC2)CC(=O)N1CCCCN1CCN(c2ncccn2)CC1 [Buspirone],95.9%,–
O=C1CC2(CCCC2)CC(=O)N1CCCCN1CCN(c2ncccn2)CC1 [Buspirone hydrochloride],94.6 ± 1.9%,–
O=C1CC2(CCCC2)CC(=O)N1CCCCN1CCN(c2ncccn2)CC1,95.5%,–
CC(C)CC(=O)N[C@H](C(=O)N[C@H](C(=O)N[C@@H](CC(C)C)[C@@H](O)CC(=O)N[C@@H](C)C(=O)N[C@@H](CC(C)C)[C@@H](O)CC(=O)O)C(C)C)C(C)C [Pepstatin A],112%,–
O=c1cc[nH]c(=S)[nH]1 [2-Thiouracile],–,99.6%
O=c1cc[nH]c(=S)[nH]1,108%,–
C[C@H](O)C(=O)Nc1c(I)c(C(=O)NC(CO)CO)c(I)c(C(=O)NC(CO)CO)c1I [Iopamidol],77.9%,–
"COc1ccc2c(c1)C(=O)CC(c1cccc(OC)c1OC)O2 (stereo unspecified) [2',3',6-Trimethoxyflavanone]",–,98.5%
"N[C@H](C(=O)O)c1cc(O)cc(O)c1 [(S)-3,5-Dihydroxyphenylglycine]",110%,–
